The list does not hold the whole screen: it is rich in T/C values a quarter to a half above the control, in often repeated tests (any T/C) and in doses without a T/C. Further doses and runs are listed elsewhere. T/C is the treated group as % of the vehicle group. Some entries give survivors of the animals treated and no T/C: the source files T/C as zero there, which appears to mark a toxic dose or a test without result, not a measured value. Some doses without a T/C left all or most animals alive at the check, yet need not have been tolerated: survival well below the control is almost never listed, so the zero probably covers shortened survival too. Survivors were counted at the toxicity check, usually on the fifth day, unless a day is given; later deaths do not show. Schedule codes are those of the source, read here as Q, the interval in days (D) or hours (H), X, the number of doses. Some entries hold several experiments; their values stand side by side, smallest first. For survival time, this PubChem deposit counts one and a half times the control or more as active, and values a quarter to a half above the control carry no call in these data; other NCI protocols may use other cut-offs. Some T/C values carry the count of animals alive at the toxicity check (mostly the fifth day); without a count, all were alive then.
Tested on: P388 leukemia ip, CD2F1 mice, survival T/C
Assay: NCI In Vivo Anticancer Drug Screen. Data for tumor model P388 Leukemia (intraperitoneal) in CD2F1 (CDF1) mice
Conditions: T/C endpoint: median survival time, higher T/C = longer survival
[1] = dose: 12.5 mg/kg/injection, schedule: Q01DX009 (ip), vehicle: saline with Tween-80
[2] = dose: 50.0 mg/kg/injection, schedule: Q01DX009 (ip), vehicle: saline with Tween-80
[3] = dose: 100.0 mg/kg/injection, schedule: Q01DX009 (ip), vehicle: saline with Tween-80
[4] = dose: 200.0 mg/kg/injection, schedule: Q01DX009 (ip), vehicle: saline with Tween-80
[5] = dose: 25.0 mg/kg/injection, schedule: Q01DX009 (ip), vehicle: saline with Tween-80
[6] = dose: 200.0 mg/kg/injection, schedule: Q01DX005 (ip), vehicle: Klucel (hydroxypropylcellulose) (HPC)
[7] = dose: 100.0 mg/kg/injection, schedule: Q01DX009 (ip), vehicle: Klucel (hydroxypropylcellulose) (HPC)
[8] = dose: 200.0 mg/kg/injection, schedule: Q01DX009 (ip), vehicle: Klucel (hydroxypropylcellulose) (HPC)
[9] = dose: 25.0 mg/kg/injection, schedule: Q01DX009 (ip), vehicle: Klucel (hydroxypropylcellulose) (HPC)
[10] = dose: 6.25 mg/kg/injection, schedule: Q01DX009 (ip), vehicle: water

**Q.** Which results are given for `Clc1ccc(-c2n[se]c(-c3ccc(Cl)cc3)n2)cc1`?
**A.** survivor count (dose: 3.12 mg/kg/injection, schedule: Q01DX009 (ip), vehicle: saline with Tween-80): 6 of 6; survivor count (dose: 6.25 mg/kg/injection, schedule: Q01DX009 (ip), vehicle: saline with Tween-80): 6 of 6; survivor count [1]: 6 of 6; survivor count [2]: 6 of 6; survivor count [3]: 3 of 6; survivor count [4]: 0 of 6

**Q.** Which results are given for `O=C1O/C(=C2/OC(=O)c3ccccc32)c2ccccc21`?
**A.** survivor count [5]: 6 of 6; survivor count [3]: 5 of 6

**Q.** Which results are given for `COc1ccc2nc(C)c3c(c2c1)C(=O)N(CCCN1CCN(CCCN2C(=O)c4c(C)nc5ccc(OC)cc5c4C2=O)CC1)C3=O`?
**A.** survivor count (dose: 50.0 mg/kg/injection, schedule: Q01DX005 (ip), vehicle: Klucel (hydroxypropylcellulose) (HPC)): 6 of 6; survivor count (dose: 100.0 mg/kg/injection, schedule: Q01DX005 (ip), vehicle: Klucel (hydroxypropylcellulose) (HPC)): 6 of 6; survivor count [6]: 6 of 6

**Q.** Which survivor count (dose: 300.0 mg/kg/injection, schedule: Q01DX009 (ip), vehicle: saline with Tween-80) does the source give for `CNC1Cc2c[nH]c3cccc(c23)C12C=C(C)C(=O)O2` (configuration not stated) here?
**A.** 0 of 3

**Q.** What does the source list for `COC(=O)C1C(=O)CC2N(C)C1C(C)(C)C2(C)C` (configuration not stated)?
**A.** T/C (dose: 30.0 mg/kg/injection, schedule: Q01DX005 (ip), vehicle: saline with Tween-80): 134 % of control; T/C (dose: 60.0 mg/kg/injection, schedule: Q01DX005 (ip), vehicle: saline with Tween-80): 133 and 145 % of control; T/C (dose: 120.0 mg/kg/injection, schedule: Q01DX005 (ip), vehicle: saline with Tween-80): 140 % of control; survivor count (dose: 240.0 mg/kg/injection, schedule: Q01DX005 (ip), vehicle: saline with Tween-80): 1 of 6 and 2 of 6

**Q.** For `COCc1cnc2nc(N)nc(N)c2n1`, which survivor count (dose: 6.25 mg/kg/injection, schedule: Q01DX009 (ip), vehicle: distilled water + Tween-80) is on record?
**A.** 4 of 6

**Q.** Which survivor count (dose: 200.0 mg/kg/injection, schedule: Q04DX003 (ip), vehicle: saline with Tween-80) does the source give for `ClCC(CCl)(CCl)CCl` here?
**A.** 1 of 6

**Q.** What about the survivor count (dose: 400.0 mg/kg/injection, schedule: Q04DX003 (ip), vehicle: saline with Tween-80) of the same molecule?
**A.** 0 of 6

**Q.** How did the survivor count [7] turn out when `CC(=O)Nc1ccc(OCCOC(=O)Nc2ccc(C)cc2[N+](=O)[O-])cc1` was run?
**A.** 6 of 6

**Q.** And the survivor count [8]?
**A.** 6 of 6

**Q.** How did the T/C [5] turn out when `Cn1cnc([N+](=O)[O-])c1S(N)(=O)=O` was run?
**A.** 130 % of control

**Q.** What about the T/C [2] of the same molecule?
**A.** 130 % of control

**Q.** For `O=C(CBr)c1cc2c(cc1I)OCO2`, which survivor count (dose: 50.0 mg/kg/injection, schedule: Q01DX001 (ip), vehicle: saline with Tween-80) is on record?
**A.** 4 of 6

**Q.** What about the survivor count (dose: 100.0 mg/kg/injection, schedule: Q01DX001 (ip), vehicle: saline with Tween-80) of the same molecule?
**A.** 1 of 6

**Q.** And the survivor count (dose: 200.0 mg/kg/injection, schedule: Q01DX001 (ip), vehicle: saline with Tween-80)?
**A.** 3 of 6

**Q.** What about the survivor count (dose: 400.0 mg/kg/injection, schedule: Q01DX001 (ip), vehicle: saline with Tween-80) of the same molecule?
**A.** 0 of 6

**Q.** `CNCCCc1cc(-c2ccc([N+](=O)[O-])cc2)n[nH]1` was tested. Which survivor count (dose: 400.0 mg/kg/injection, schedule: Q04DX002 (ip), vehicle: Klucel (hydroxypropylcellulose) (HPC)) did it give?
**A.** 2 of 6

**Q.** For `Cc1nnc(NS(=O)(=O)c2ccc(N=Nc3cc(N=Nc4ccc(S(=O)(=O)Nc5nnc(C)s5)cc4)c4c(NC(=O)C(Cl)Cl)cccc4c3OC(=O)C(Cl)Cl)cc2)s1` (tested in a mixture with another compound), which T/C [1] is on record?
**A.** 129 % of control

**Q.** What about the T/C [9] of the same molecule?
**A.** 132 % of control

**Q.** What about the T/C [5] of the same molecule?
**A.** 138 % of control

**Q.** And the survivor count [2]?
**A.** 6 of 6

**Q.** What about the survivor count [3] of the same molecule?
**A.** 4 of 6

**Q.** What about the survivor count [4] of the same molecule?
**A.** 3 of 6

**Q.** With `C[Si](C)(C)C1c2ccccc2-c2[nH]c3ccccc3c21` (configuration not stated) as the molecule, how does the survivor count (dose: 50.0 mg/kg/injection, schedule: Q01DX009 (ip), vehicle: Klucel (hydroxypropylcellulose) (HPC)) read?
**A.** 6 of 6

**Q.** And the survivor count [7]?
**A.** 1 of 6

**Q.** And the survivor count [8]?
**A.** 0 of 6

**Q.** How did the T/C (dose: 0.78 mg/kg/injection, schedule: Q01DX009 (ip), vehicle: water) turn out when `CCOCC(=O)[C@]1(O)Cc2c(O)c3c(c(O)c2[C@@H](OC2CC(N)C(O)C(C)O2)C1)C(=O)c1c(OC)cccc1C3=O` (some centres not stated) was run?
**A.** 137 % of control

**Q.** What about the T/C (dose: 1.56 mg/kg/injection, schedule: Q01DX009 (ip), vehicle: water) of the same molecule?
**A.** 144 % of control

**Q.** And the T/C [10]?
**A.** 146 % of control

**Q.** And the survivor count [10]?
**A.** 6 of 6

**Q.** And the survivor count (dose: 12.5 mg/kg/injection, schedule: Q01DX009 (ip), vehicle: water)?
**A.** 4 of 6 and 6 of 6

**Q.** What about the survivor count (dose: 25.0 mg/kg/injection, schedule: Q01DX009 (ip), vehicle: water) of the same molecule?
**A.** 2 of 6

**Q.** With `CC(=O)OCC12C(OC(C)=O)CC(C)C3(CC(c4ccoc4)OC3=O)C1CCC(=O)C2(O)CCl` (configuration not stated) as the molecule, how does the survivor count (dose: 50.0 mg/kg/injection, schedule: Q01DX005 (ip), vehicle: saline + Tween-80 + alcohol) read?
**A.** 6 of 6

**Q.** `OCCNCCN=C1CCC(=NCCNCCO)CC1` was tested. Which survivor count (dose: 200.0 mg/kg/injection, schedule: Q01DX005 (ip), vehicle: saline) did it give?
**A.** 2 of 5

**Q.** `CC(/C=C/C(=O)NO)=C\C(C)C(=O)c1ccc(N(C)C)cc1` (configuration not stated) was tested. Which T/C (dose: 2.19 mg/kg/injection, schedule: Q01DX009 (ip), vehicle: saline with Tween-80) did it give?
**A.** 130 % of control

**Q.** What about the T/C (dose: 4.38 mg/kg/injection, schedule: Q01DX009 (ip), vehicle: saline with Tween-80) of the same molecule?
**A.** 134 % of control

**Q.** What about the survivor count (dose: 17.5 mg/kg/injection, schedule: Q01DX009 (ip), vehicle: Klucel (hydroxypropylcellulose) (HPC)) of the same molecule?
**A.** 5 of 6

**Q.** And the survivor count (dose: 35.0 mg/kg/injection, schedule: Q01DX009 (ip), vehicle: Klucel (hydroxypropylcellulose) (HPC))?
**A.** 5 of 6

**Q.** For `Clc1cc(Cl)nc(N2CC2)n1`, which survivor count (dose: 20.0 mg/kg/injection, schedule: Q01DX009 (ip), vehicle: saline with Tween-80) is on record?
**A.** 0 of 6

**Q.** What does the source list for `CCOC(=O)Nc1cc2c(c(N)n1)N=C(c1ccc(OC)cc1)CN2`?
**A.** T/C (dose: 3.0 mg/kg/injection, schedule: Q01DX009 (ip), vehicle: Klucel (hydroxypropylcellulose) (HPC)): 135 % of control; T/C (dose: 6.0 mg/kg/injection, schedule: Q01DX009 (ip), vehicle: Klucel (hydroxypropylcellulose) (HPC)): 125 and 131 % of control [5 of 6 alive]; survivor count (dose: 12.0 mg/kg/injection, schedule: Q01DX009 (ip), vehicle: Klucel (hydroxypropylcellulose) (HPC)): 5 of 5 and 6 of 6; T/C (dose: 12.0 mg/kg/injection, schedule: Q04DX003 (ip), vehicle: Klucel (hydroxypropylcellulose) (HPC)): 129 % of control; T/C (dose: 12.5 mg/kg/injection, schedule: Q01DX001 (ip), vehicle: Klucel (hydroxypropylcellulose) (HPC)): 125 % of control; T/C (dose: 25.0 mg/kg/injection, schedule: Q01DX001 (ip), vehicle: Klucel (hydroxypropylcellulose) (HPC)): 146 % of control; survivor count [9]: 0 of 6; survivor count (dose: 25.0 mg/kg/injection, schedule: Q04DX003 (ip), vehicle: Klucel (hydroxypropylcellulose) (HPC)): 4 of 6; survivor count (dose: 50.0 mg/kg/injection, schedule: Q01DX001 (ip), vehicle: Klucel (hydroxypropylcellulose) (HPC)): 1 of 6 and 2 of 6; survivor count (dose: 50.0 mg/kg/injection, schedule: Q04DX003 (ip), vehicle: Klucel (hydroxypropylcellulose) (HPC)): 2 of 6 and 3 of 6; survivor count (dose: 100.0 mg/kg/injection, schedule: Q01DX001 (ip), vehicle: Klucel (hydroxypropylcellulose) (HPC)): 0 of 6

**Q.** How did the survivor count (dose: 2.5 mg/kg/injection, schedule: Q01DX005 (ip), vehicle: Klucel (hydroxypropylcellulose) (HPC)) turn out when `C=C(C)C1C2CC3(C)C4(CO4)C4OC4C3(O)C1C(=O)O2` (configuration not stated) was run?
**A.** 1 of 6

**Q.** And the survivor count (dose: 5.0 mg/kg/injection, schedule: Q01DX005 (ip), vehicle: Klucel (hydroxypropylcellulose) (HPC))?
**A.** 0 of 6

**Q.** What about the survivor count (dose: 10.0 mg/kg/injection, schedule: Q01DX005 (ip), vehicle: Klucel (hydroxypropylcellulose) (HPC)) of the same molecule?
**A.** 0 of 6

**Q.** What about the survivor count (dose: 20.0 mg/kg/injection, schedule: Q01DX005 (ip), vehicle: Klucel (hydroxypropylcellulose) (HPC)) of the same molecule?
**A.** 0 of 6

**Q.** What about the survivor count (dose: 40.0 mg/kg/injection, schedule: Q01DX005 (ip), vehicle: Klucel (hydroxypropylcellulose) (HPC)) of the same molecule?
**A.** 0 of 6

**Q.** With `COCc1cccnc1` as the molecule, how does the survivor count [6] read?
**A.** 4 of 6

— PubChem BioAssay AID330 (DTP/NCI, 2004)
